According to patent US20070212723A1, “Human sodium channel isoforms” (priority 2006, published 2007):
Part of at least one peptide drawing is inferred or uncertain, most often the ends.

Amino acid sequences for entries named in this document (tags omitted). Residues count along the entry.
UniProt Q63369, 1-433 limits assumed: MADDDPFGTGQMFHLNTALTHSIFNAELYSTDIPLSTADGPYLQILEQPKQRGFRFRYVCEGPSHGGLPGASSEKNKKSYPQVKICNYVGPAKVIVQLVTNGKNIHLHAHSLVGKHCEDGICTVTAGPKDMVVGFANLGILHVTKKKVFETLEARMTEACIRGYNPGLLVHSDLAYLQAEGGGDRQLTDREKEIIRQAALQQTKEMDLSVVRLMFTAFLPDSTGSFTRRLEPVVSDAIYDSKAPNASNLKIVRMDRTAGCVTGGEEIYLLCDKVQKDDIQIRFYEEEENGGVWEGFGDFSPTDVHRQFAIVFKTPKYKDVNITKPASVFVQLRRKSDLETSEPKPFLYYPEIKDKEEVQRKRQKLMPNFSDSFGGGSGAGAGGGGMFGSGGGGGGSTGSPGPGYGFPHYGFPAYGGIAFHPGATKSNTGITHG
UniProt Q7TQN4, whole entry: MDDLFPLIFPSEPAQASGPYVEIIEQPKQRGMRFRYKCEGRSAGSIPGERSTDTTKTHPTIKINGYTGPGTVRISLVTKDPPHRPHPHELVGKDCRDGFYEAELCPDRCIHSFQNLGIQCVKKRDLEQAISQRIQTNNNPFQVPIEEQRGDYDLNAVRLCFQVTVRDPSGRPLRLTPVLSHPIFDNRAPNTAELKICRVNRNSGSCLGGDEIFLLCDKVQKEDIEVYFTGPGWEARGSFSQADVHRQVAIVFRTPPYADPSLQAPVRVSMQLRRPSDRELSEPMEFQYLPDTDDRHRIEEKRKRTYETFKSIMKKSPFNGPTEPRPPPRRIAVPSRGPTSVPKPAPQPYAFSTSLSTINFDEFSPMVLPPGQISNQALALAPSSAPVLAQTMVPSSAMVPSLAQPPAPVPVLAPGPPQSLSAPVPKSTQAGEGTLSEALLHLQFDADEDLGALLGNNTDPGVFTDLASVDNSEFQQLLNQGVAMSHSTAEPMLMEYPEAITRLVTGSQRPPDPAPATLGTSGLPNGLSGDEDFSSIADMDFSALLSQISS

What was measured:
[1] = molecular target: T1, NF-κB binding to the scn5a promoter (Rattus norvegicus, UniProt Q63369+Q7TQN4); test: Electrophoretic mobility shift assay with H9c2 nuclear extracts; format: cell-based; conditions: 48 h treatment
T1 construct: endogenous in cells; host or cells: H9c2 cardiomyocytes (nuclear extract / cross-linked chromatin)
Source text: Approximately 5×10^6 cells were scraped for nuclear protein extraction by nuclear extract kit (Activemotif, Carlsbad, Calif.). A double-stranded oligonucleotide containing the consensus-binding sequence (bold) for […] ID NO. 32)) and NF-Kb mutant sequence ([NT] ID NO. 33)) from scn5a promoter were used as probes to assay for binding activity of the nuclear extracts. Protein-DNA complexes were detected using biotin end-labeled double-stranded DNA probes prepared by annealing complementary oligonucleotides. Oligonucleotides were labeled in a reaction using terminal deoxynucleotide transferase and biotin-N4-CTP (Pierce, Rockford, Ill.) following the biotin 3' end DNA labeling kit manual. The binding reaction was performed using the LightShift kit (Pierce). Briefly, 30 μg of nuclear extracts and binding buffer were incubated on ice for 5 min in a volume of 20 μL, then the labeled probe (20 fmol) was added, and the reaction was allowed to incubate for an additional 25 min. Following electrophoresis, the DNA-protein complexes were transferred onto nylon membranes and detected using chemiluminescence. TNF-α activated H9c2 cell nuclear extract (5 μg) was used as positive control. The reaction products were separated on a 6% retardation gel. Specificity was confirmed by addition of unlabelled probe in 200-fold excess.

[2] = molecular target: T2, NF-κB p50/p65 subunits on the cardiac Na+ channel promoter (Rattus norvegicus, UniProt Q63369+Q7TQN4); test: Chromatin immunoprecipitation (ChIP) assay in H9c2 cells; format: cell-based; conditions: H9c2, AngII or H2O2 treatment
T2 construct: endogenous in cells; host or cells: H9c2 cardiomyocytes (nuclear extract / cross-linked chromatin)
Procedure: Formaldehyde cross-linking and chromatin immunoprecipitation was performed as described in manufactory's manual (ChIP-IT™ kit, Activemotif). Briefly, proteins were crosslinked with chromatin using 1% formaldehyde in H9c2 cells with or without treatment. The cells were subsequently sonicated in lysis buffer, and an aliquot of the lysate was used in a PCR reaction. The remaining lysate was cleared with protein G beads. One half of the cleared lysate was incubated with p50 or p65 antibody, while the other half was used as a negative control without the antibody. After reversing the cross-linking, the immuno-complex was digested with proteinase K, and the DNA was purified. DNA was analyzed by PCR with the PicoMax Polymerase (Stratagene, La Jolla, Calif.) and primers specific to the APS3 promoter region.

CC[C@H](C)[C@H](NC(=O)[C@H](Cc1ccc(O)cc1)NC(=O)[C@@H](NC(=O)[C@H](CCCNC(=N)N)NC(=O)[C@@H](N)CC(=O)O)C(C)C)C(=O)N[C@@H](Cc1c[nH]cn1)C(=O)N1CCC[C@H]1C(=O)N[C@@H](Cc1ccccc1)C(=O)O [AngII, angiotensin II]
NF-κB binding activity to scn5a promoter probe [1]: increased
NF-κB subunits on the cardiac Na+ channel promoter [2]: formation of the complete p50-p65 NF-κB heterodimer
